Consider 39 sequences from PMC7862700.

The entries are a selection whose mix differs from that of the whole data set. At the low end of the ranking the order means little.

The target of the first assay is T1, ETS2 (UniProt P15036).
T1 sequence: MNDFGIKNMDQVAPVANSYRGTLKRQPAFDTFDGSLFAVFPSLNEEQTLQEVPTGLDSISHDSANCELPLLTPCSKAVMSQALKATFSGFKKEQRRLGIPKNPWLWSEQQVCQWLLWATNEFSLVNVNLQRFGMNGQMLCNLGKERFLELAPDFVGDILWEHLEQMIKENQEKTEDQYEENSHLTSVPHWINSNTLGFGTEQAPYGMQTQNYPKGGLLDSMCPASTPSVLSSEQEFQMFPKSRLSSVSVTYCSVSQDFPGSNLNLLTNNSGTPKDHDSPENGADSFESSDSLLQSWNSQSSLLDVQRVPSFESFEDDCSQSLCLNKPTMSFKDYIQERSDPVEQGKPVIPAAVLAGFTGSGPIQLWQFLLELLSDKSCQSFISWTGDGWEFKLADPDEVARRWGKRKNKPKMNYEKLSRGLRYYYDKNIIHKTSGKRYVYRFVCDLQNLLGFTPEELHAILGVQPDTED
The experiment in a line: DAPPL (digital affinity profiling via proximity ligation, sequencing). To be noted: 10 mM Tris-HCl pH 7.5, 50 mM NaCl, 1 mM DTT, 4% glycerol, room temperature, 30 min; GST-TFs on glutathione beads, 16-mer random dsDNA library, 0.1% …; high values mean tight binding; double strand, one strand shown; scale: fold enrichment (6-mer frequency, TF over GST control).
In turn, TGAGTC registered a binding signal of 0.196.

Turning to GAGTCA, the binding signal worked out at 0.263.

Sequence AGAGGG registered a binding signal of 0.746.

The sequence AGTTCG registered a binding signal of 0.736.

The sequence CGCAGA gave a binding signal of 0.773.

Regarding GCATGA, the binding signal came out at 0.835.

Consider AAAGGA, for which the binding signal was determined as 0.83.

Sequence CCATCG showed a binding signal of 0.898.

The sequence CGCATT displayed a binding signal of 0.784.

In the case of GGGAGC, the binding signal amounted to 0.394.

Sequence GGTTGC gave a binding signal of 0.892.

Regarding GTCGGC, the binding signal was 0.376.

In the case of CGGCAG, the binding signal was 0.83.

As for CCGAGA, the binding signal came out at 0.578.

As to TGAGAT, the binding signal was 0.699.

Consider GGCCAA, for which the binding signal amounted to 0.809.

On to ACAGCG, for which the binding signal worked out at 0.849.

As for GCGGAT, the binding signal is 0.979.

Regarding GGCCCA, the binding signal was 0.824.

For the sequence CACGGT, the binding signal was found to be 0.988.

For CAGTAC, the binding signal came to 0.759.

The sequence CAATCG yielded a binding signal of 0.914.

Take ACAGAC: the binding signal was determined as 0.773.

As to TCGGCA, the binding signal was determined as 0.699.

For CGAGGA, the binding signal was 0.66.

CCGAGG registered a binding signal of 0.725.

For the sequence CCGTGG, the binding signal stood at 0.421.

As to GCCCAG, the binding signal amounted to 0.771.

Consider AAGACC, for which the binding signal came to 0.841.

GAGCGG showed a binding signal of 0.5.

Sequence CCAGGT showed a binding signal of 0.68.

Regarding CCAGTG, the binding signal came to 0.465.

For the sequence GTCGGT, the binding signal was found to be 0.3.

For GTGGAG, the binding signal stood at 0.405.

As for GTCCAG, the binding signal turned out to be 0.607.

CTAGAG: the binding signal was determined as 0.852.

For GGCCGA, the binding signal worked out at 0.661.

Regarding CGTGTA, the binding signal turned out to be 0.652.

ACGGGC yielded a binding signal of 0.794.

The target of the next assay is T2, ETV3 (UniProt P41162-2).
T2 sequence: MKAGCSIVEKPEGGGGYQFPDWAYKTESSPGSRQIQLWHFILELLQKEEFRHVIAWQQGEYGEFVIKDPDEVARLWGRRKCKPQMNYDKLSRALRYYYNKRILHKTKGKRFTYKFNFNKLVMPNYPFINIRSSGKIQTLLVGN
The description is as above. To be noted: 10 mM Tris-HCl pH 7.5, 50 mM NaCl, 1 mM DTT, 4% glycerol, room temperature, 30 min; GST-TFs on glutathione beads, 16-mer random dsDNA library, 0.1% …; high values mean tight binding; double strand, one strand shown; scale: fold enrichment (6-mer frequency, TF over GST control).
Take TGAGTC: the binding signal came to 0.212.

GAGTCA gave a binding signal of 0.289.

In turn, AGAGGG yielded a binding signal of 0.707.

On to AGTTCG, for which the binding signal turned out to be 0.729.

CGCAGA yielded a binding signal of 0.784.

For the sequence GCATGA, the binding signal amounted to 0.828.

Turning to AAAGGA, the binding signal came out at 0.933.

In turn, CCATCG showed a binding signal of 0.894.

In turn, CGCATT showed a binding signal of 0.801.

Take GGGAGC: the binding signal turned out to be 0.397.

GGTTGC showed a binding signal of 0.939.

GTCGGC returned a binding signal of 0.392.

CGGCAG returned a binding signal of 0.768.

As for CCGAGA, the binding signal came out at 0.642.

With TGAGAT, the binding signal came out at 0.668.

As to GGCCAA, the binding signal stood at 0.829.

In turn, ACAGCG showed a binding signal of 0.754.

In turn, GCGGAT registered a binding signal of 0.976.

In the case of GGCCCA, the binding signal is 0.845.

For CACGGT, the binding signal was determined as 0.886.

For the sequence CAGTAC, the binding signal amounted to 0.805.

Turning to CAATCG, the binding signal is 0.9.

In turn, ACAGAC had a binding signal of 0.839.

Sequence TCGGCA registered a binding signal of 0.705.

CGAGGA returned a binding signal of 0.651.

For the sequence CCGAGG, the binding signal was 0.74.

Sequence CCGTGG gave a binding signal of 0.445.

GCCCAG registered a binding signal of 0.724.

As to AAGACC, the binding signal came to 0.763.

As to GAGCGG, the binding signal amounted to 0.511.

CCAGGT: the binding signal amounted to 0.775.

In the case of CCAGTG, the binding signal amounted to 0.483.

The sequence GTCGGT had a binding signal of 0.276.

GTGGAG: the binding signal came out at 0.424.

Sequence GTCCAG yielded a binding signal of 0.618.

For the sequence CTAGAG, the binding signal stood at 0.814.

The sequence GGCCGA had a binding signal of 0.773.

For the sequence CGTGTA, the binding signal was 0.654.

As to ACGGGC, the binding signal is 0.803.
